Test results from paper PMC8327751.
No constants are given. Whether binding was seen depends on the method and setting. Binding seen in cells or lysates may run through a third protein. Some binding calls cover weakened binding; strength is not graded here.

The chains behind the UniProt entries cited, without tags or fusion partners.
UniProt O15205: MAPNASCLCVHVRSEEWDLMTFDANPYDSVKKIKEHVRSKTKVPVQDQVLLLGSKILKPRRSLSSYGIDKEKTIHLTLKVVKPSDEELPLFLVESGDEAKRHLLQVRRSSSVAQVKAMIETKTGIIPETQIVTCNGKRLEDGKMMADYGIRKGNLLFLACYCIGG

Target: tumor suppressor p53 (human (endogenous in HCT116)) (UniProt P04637)
Assay: co-IP; immunoprecipitation of endogenous UBD and p53 from HCT116 cell lysate (RIPA lysis buffer with 1% PMSF); UBD-p53 complexes also examined in cells with shRNA knock-down of UBA6 or USE1; procedure as in ref. 34

In the case of Ubiquitin D (from UniProt O15205 1-165), the binding is reported as “binds”.
